From the supplement of paper PMC10849652 come the findings set out here.

Chains of the proteins cited; added tags and fusions are not shown. Lines headed by an entry give the natural chain unless they say otherwise; changes in a name come on top.
UniProt P57768: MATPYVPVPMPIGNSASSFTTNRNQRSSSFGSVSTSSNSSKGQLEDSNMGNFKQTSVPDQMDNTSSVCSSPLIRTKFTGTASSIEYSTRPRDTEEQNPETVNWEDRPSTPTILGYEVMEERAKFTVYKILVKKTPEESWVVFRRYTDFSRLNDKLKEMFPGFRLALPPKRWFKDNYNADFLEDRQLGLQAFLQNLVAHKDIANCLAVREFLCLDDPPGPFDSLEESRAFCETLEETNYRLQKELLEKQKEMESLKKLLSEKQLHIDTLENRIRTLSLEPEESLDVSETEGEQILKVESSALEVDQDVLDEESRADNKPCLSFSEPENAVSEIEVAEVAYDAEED
UniProt P62308, whole entry, looked up: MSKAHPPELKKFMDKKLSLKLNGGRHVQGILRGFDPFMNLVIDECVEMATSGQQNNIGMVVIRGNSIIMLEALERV
UniProt Q16637, whole entry, looked up: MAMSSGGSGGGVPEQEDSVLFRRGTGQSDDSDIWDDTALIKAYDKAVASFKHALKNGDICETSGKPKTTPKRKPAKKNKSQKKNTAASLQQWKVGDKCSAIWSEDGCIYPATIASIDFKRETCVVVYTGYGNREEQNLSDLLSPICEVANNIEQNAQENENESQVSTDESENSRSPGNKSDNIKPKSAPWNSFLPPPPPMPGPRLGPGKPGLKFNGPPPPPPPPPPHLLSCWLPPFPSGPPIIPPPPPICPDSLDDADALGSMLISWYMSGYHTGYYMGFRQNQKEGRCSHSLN
UniProt P62316, whole entry, looked up: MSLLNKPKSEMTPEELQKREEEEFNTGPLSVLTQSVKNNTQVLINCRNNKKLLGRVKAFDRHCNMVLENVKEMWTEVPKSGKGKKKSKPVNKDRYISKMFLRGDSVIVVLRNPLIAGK
UniProt Q96H20: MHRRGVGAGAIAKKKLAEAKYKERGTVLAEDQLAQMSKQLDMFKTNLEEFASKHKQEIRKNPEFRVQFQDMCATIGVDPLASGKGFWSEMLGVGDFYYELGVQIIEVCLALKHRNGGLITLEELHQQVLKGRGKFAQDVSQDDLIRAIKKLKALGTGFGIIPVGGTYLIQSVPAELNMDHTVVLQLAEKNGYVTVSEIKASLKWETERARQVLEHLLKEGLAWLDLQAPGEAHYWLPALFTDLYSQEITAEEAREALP
UniProt P09661: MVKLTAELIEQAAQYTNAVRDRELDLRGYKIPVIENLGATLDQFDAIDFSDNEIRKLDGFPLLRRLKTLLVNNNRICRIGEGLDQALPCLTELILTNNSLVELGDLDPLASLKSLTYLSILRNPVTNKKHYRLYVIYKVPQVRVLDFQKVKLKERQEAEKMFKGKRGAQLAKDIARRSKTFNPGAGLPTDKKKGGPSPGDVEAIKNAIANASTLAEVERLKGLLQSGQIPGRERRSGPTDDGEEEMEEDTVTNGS
UniProt Q9Y5X2: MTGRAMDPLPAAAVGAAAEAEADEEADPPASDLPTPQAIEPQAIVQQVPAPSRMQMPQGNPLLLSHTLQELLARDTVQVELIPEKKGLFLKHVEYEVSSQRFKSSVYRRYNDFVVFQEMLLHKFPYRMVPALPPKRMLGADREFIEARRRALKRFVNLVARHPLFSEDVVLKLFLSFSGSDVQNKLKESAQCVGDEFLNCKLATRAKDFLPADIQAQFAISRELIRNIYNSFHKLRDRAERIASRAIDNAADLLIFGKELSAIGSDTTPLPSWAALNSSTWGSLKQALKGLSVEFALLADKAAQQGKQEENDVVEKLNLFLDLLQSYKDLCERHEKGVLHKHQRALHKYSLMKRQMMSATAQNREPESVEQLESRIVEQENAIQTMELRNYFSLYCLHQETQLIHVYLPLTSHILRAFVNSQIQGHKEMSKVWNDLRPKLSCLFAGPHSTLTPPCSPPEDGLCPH
UniProt P04179: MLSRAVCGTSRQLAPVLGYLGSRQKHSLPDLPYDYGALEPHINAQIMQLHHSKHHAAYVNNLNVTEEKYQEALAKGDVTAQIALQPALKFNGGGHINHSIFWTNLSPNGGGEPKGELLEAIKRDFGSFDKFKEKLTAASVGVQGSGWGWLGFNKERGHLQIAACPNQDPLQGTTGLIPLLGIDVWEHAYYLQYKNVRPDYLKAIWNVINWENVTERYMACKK
UniProt O95721: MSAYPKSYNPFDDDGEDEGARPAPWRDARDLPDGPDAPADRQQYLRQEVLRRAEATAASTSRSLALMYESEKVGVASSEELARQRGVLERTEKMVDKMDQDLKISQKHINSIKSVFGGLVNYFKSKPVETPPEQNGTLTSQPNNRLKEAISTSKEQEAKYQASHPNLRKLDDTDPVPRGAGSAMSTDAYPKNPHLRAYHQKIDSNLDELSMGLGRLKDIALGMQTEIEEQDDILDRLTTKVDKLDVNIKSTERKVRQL
UniProt O75643, whole entry, looked up: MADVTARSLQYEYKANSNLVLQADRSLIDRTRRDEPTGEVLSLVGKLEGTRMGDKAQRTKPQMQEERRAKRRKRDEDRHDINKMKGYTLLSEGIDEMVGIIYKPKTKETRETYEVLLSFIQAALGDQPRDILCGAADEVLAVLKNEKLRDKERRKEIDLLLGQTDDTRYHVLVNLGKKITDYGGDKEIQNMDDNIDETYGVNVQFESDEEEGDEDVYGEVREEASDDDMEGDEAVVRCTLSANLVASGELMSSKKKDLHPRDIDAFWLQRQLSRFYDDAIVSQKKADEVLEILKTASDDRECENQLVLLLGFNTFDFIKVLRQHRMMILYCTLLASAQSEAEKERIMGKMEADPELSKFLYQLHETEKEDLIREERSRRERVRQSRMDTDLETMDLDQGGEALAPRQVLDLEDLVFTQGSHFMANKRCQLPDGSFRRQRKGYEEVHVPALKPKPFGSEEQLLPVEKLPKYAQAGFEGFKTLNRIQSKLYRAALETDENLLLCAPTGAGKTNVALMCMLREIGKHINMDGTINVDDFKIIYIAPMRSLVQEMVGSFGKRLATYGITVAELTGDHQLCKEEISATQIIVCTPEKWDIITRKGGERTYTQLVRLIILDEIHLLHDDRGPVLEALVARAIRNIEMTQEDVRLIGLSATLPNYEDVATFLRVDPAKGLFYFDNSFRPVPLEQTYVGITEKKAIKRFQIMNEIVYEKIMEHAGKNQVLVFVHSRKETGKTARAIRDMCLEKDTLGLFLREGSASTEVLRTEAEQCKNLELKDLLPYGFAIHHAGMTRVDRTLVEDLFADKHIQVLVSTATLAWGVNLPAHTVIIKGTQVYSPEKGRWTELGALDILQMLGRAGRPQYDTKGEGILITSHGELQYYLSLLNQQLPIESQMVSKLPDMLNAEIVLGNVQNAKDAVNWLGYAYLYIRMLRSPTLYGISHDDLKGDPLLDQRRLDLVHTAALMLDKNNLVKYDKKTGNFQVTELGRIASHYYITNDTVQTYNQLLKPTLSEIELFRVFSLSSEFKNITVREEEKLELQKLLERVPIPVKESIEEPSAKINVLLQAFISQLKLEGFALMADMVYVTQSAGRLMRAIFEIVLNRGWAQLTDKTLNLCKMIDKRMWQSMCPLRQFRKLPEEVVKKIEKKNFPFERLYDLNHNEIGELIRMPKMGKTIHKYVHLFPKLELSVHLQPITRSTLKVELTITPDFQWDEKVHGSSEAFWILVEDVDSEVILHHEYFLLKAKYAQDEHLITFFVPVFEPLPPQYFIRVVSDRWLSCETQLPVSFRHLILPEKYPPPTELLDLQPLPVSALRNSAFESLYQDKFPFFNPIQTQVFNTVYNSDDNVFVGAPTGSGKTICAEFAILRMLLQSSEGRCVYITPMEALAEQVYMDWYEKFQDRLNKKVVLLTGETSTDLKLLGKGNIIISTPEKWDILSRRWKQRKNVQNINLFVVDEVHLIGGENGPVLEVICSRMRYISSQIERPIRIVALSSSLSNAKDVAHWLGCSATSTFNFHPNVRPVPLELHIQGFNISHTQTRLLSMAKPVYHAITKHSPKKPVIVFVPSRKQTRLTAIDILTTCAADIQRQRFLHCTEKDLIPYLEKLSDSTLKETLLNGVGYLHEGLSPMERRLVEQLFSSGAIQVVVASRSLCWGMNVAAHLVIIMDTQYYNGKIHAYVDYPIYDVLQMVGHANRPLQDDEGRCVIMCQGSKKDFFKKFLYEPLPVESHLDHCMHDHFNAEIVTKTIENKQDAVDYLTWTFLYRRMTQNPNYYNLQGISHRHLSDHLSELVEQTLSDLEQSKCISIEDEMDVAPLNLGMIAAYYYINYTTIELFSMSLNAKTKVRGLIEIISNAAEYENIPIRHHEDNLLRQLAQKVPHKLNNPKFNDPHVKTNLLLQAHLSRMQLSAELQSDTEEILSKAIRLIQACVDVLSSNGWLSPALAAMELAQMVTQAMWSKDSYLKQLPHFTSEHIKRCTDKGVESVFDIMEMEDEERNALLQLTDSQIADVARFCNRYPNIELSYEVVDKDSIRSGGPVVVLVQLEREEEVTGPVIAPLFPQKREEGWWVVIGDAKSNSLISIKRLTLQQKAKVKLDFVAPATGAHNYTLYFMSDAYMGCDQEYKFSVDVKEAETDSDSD
UniProt O60906: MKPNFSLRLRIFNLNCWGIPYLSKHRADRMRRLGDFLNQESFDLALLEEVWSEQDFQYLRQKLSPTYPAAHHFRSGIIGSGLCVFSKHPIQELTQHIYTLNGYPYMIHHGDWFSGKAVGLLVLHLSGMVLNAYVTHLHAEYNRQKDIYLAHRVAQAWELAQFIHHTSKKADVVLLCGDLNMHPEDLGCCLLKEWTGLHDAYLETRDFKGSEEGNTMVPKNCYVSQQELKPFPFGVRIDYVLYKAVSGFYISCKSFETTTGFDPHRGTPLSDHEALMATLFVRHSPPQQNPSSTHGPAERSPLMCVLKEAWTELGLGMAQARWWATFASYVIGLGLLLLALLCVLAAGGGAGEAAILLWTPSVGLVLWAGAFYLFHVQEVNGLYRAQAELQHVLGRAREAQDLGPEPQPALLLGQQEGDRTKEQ
UniProt Q15599: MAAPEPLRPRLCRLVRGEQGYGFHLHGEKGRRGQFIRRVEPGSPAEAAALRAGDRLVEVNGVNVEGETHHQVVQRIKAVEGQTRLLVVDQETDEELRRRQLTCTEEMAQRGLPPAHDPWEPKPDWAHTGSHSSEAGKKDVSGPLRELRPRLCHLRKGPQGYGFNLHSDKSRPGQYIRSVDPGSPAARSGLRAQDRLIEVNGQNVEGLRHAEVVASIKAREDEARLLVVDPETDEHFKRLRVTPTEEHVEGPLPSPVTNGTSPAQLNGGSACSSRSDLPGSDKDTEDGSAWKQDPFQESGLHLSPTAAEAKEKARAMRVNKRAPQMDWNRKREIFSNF
UniProt Q92540: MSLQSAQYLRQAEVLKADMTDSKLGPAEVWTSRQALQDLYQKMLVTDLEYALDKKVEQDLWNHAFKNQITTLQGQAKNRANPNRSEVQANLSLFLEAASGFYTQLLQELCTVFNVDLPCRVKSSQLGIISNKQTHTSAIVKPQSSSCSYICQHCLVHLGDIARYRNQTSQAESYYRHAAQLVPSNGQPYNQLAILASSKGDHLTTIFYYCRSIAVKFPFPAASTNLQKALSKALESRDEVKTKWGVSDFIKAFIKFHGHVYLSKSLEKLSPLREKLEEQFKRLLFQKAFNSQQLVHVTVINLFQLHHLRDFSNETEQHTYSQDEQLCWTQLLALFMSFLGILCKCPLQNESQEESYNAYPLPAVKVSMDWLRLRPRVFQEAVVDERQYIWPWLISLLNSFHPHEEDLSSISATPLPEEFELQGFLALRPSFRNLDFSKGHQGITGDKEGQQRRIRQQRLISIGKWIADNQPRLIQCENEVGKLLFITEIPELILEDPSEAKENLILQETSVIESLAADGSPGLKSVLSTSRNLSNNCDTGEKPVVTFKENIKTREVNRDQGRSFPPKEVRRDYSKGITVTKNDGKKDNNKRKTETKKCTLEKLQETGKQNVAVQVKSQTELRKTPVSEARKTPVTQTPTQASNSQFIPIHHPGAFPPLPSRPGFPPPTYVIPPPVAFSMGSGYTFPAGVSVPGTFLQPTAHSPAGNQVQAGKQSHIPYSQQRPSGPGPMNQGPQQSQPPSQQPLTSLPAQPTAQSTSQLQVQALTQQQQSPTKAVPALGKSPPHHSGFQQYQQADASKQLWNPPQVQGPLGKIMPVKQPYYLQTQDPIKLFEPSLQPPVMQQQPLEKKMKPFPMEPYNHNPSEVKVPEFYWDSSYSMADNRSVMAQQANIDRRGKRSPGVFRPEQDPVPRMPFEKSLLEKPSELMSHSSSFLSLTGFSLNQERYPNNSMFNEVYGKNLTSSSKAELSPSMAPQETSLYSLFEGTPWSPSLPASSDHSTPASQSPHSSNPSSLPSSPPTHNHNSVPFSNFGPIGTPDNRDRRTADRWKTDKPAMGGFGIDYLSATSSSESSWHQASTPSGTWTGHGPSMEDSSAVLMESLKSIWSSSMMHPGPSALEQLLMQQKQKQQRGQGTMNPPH
UniProt O14508, whole entry, looked up: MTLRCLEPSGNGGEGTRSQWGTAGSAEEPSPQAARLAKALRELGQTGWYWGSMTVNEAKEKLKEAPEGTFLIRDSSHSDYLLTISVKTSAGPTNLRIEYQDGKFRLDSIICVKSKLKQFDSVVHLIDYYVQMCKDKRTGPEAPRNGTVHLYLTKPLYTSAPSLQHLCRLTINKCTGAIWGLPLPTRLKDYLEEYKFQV

The list shows a part of the results.

Compound in one test: CN(CCOC1=CC=C(C=C1)C[C@H]2C(=O)NC(=O)S2)C3=CC=CC=N3 (racemic) [rosiglitazone]
Kind of test: log2 fold change, soluble protein after heating vs DMSO (PISA); higher = thermal stabilisation; K562 cells, 10 uM, 30 min; active = over 0.2 and 3.5 SD of the protein, either way, in both replicates (recomputed). The gist of the method: (§1)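 Values are thermal stability changes relative to control samples and are taken from duplicates. They are stated as log2 fold changes. Before quantification by TMTpro 16plex LC-MS/MS with equalised channel sums, K562 cells at 2×10^6 cells/mL were treated with 10 μM compound for 30 min, heated in aliquots for 3 min across 48°C-58°C, pooled, extracted in PBS with 0.5% NP-40 at 4°C, and centrifuged at 21,000xg for 90 min to give the soluble supernatant.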
Regarding SNX16 (UniProt P57768), the log2 fold change is inactive: -0.114.
For SNRPG (UniProt P62308), the log2 fold change is inactive: -0.001.
As to SMN1 (UniProt Q16637), the log2 fold change was inactive: 0.013.
Take SNRPD2 (UniProt P62316): the log2 fold change is inactive: -0.032.
Consider SNF8 (UniProt Q96H20), for which the log2 fold change was inactive: -0.023.
Same read-out and setting: then SNRPA1 (UniProt P09661), with inactive: -0.015; and SNX8 (UniProt Q9Y5X2), with inactive: 0.036.
In the case of SNU13, A0A3B3IUA2, the log2 fold change was inactive: 0.015.
For the target SOD2 (UniProt P04179), the log2 fold change is inactive: -0.02.

Compound in a further test: CN1C2=C(C3=C1C(=O)N(N=C3)CC4=CC(=CC=C4)N)SC(=C2)S(=O)C
Described as above. A digest of the protocol: as §1
In the case of SLMAP (UniProt Q14BN4), the log2 fold change was inactive: 0.103.
As for SNAP23 (UniProt O00161), the log2 fold change is inactive: -0.001.
On the same count and under the same terms, then SNAP29 (UniProt O95721), with inactive: -0.036; and SMYD5 (UniProt Q6GMV2), with inactive: -0.081.
Take SMAP1 isoform 2 (UniProt Q8IYB5): the log2 fold change is inactive: -0.057.
As for SNRNP200 (UniProt O75643), the log2 fold change is inactive: 0.037.
As to SMPD2 (UniProt O60906), the log2 fold change was inactive: -0.07.
Turning to SPAG5 (UniProt Q96R06), the log2 fold change is inactive: 0.275.
On the same count and under the same terms, then SLC9A3R2 (UniProt Q15599), with inactive: -0.008; and SLC9A1 (UniProt P19634), with inactive: -0.046; and SNCA (UniProt P37840), with inactive: -0.038.
With SMIM12 (UniProt Q96EX1), the log2 fold change was inactive: -0.05.
SNRPC (UniProt Q5TAL2): the log2 fold change was inactive: -0.039.
Take SOD1 (UniProt P00441): the log2 fold change was inactive: -0.004.
Consider SLC9A3R1 (UniProt O14745), for which the log2 fold change was inactive: -0.06.
For SMG7 isoform 4 (UniProt Q92540), the log2 fold change is inactive: 0.099.
As for SMU1 (UniProt Q2TAY7), the log2 fold change was inactive: 0.002.
Consider SMC1A (UniProt Q14683), for which the log2 fold change was inactive: -0.032.
As to SNX17 (UniProt Q15036), the log2 fold change was inactive: 0.205.
As for SMARCC2 (UniProt Q8TAQ2), the log2 fold change is inactive: 0.116.
On to SOCS2 (UniProt O14508), for which the log2 fold change was inactive: 0.002.
With SORD (UniProt Q00796), the log2 fold change is inactive: -0.072.
SMC1B isoform 3 (UniProt Q8NDV3): the log2 fold change is inactive: 0.039.
Still for that read-out and setting: then SNX16 (UniProt P57768), with inactive: -0.06; and SNRPG (UniProt P62308), with inactive: 0.07.
In the case of SMN1 (UniProt Q16637), the log2 fold change is inactive: 0.207.
Take SNRPD2 (UniProt P62316): the log2 fold change was inactive: 0.036.
Same read-out and setting: then SNF8 (UniProt Q96H20), with inactive: -0.076.
The same measure, in the same setting: then SNRPA1 (UniProt P09661), with inactive: -0.013.
Consider SNX8 (UniProt Q9Y5X2), for which the log2 fold change is inactive: -0.029.
In the case of SNU13, A0A3B3IUA2, the log2 fold change is inactive: -0.028.
As for SOD2 (UniProt P04179), the log2 fold change is inactive: -0.014.

Compound in a further test: CN1CCC(CNc2ccc3ncc(-c4cccc(OC(F)(F)F)c4)n3n2)CC1
The description is as above. The gist of the method: as §1
SLMAP (UniProt Q14BN4): the log2 fold change was inactive: 0.015.
In the case of SNAP23 (UniProt O00161), the log2 fold change was inactive: 0.032.
The same measure, in the same setting: then SNAP29 (UniProt O95721), with inactive: -0.065; and SMYD5 (UniProt Q6GMV2), with inactive: 0.045; and SMAP1 isoform 2 (UniProt Q8IYB5), with inactive: 0.039.
SNRNP200 (UniProt O75643): the log2 fold change is inactive: 0.16.
On the same count and under the same terms, then SMPD2 (UniProt O60906), with inactive: 0.043; and SPAG5 (UniProt Q96R06), with inactive: -0.085.
The same measure, in the same setting: then SLC9A3R2 (UniProt Q15599), with inactive: 0.011; and SLC9A1 (UniProt P19634), with inactive: -0.061.
The same measure, in the same setting: then SNCA (UniProt P37840), with inactive: -0.049; and SMIM12 (UniProt Q96EX1), with inactive: 0.04; and SNRPC (UniProt Q5TAL2), with inactive: 0.12.
Regarding SOD1 (UniProt P00441), the log2 fold change is inactive: -0.026.
Turning to SLC9A3R1 (UniProt O14745), the log2 fold change was inactive: -0.035.
For the target SMG7 isoform 4 (UniProt Q92540), the log2 fold change was inactive: -0.187.
In the case of SMU1 (UniProt Q2TAY7), the log2 fold change was inactive: 0.002.
For the target SMC1A (UniProt Q14683), the log2 fold change is inactive: -0.065.
As to SNX17 (UniProt Q15036), the log2 fold change was inactive: 0.066.
The same measure, in the same setting: then SMARCC2 (UniProt Q8TAQ2), with inactive: 0.071.
For the target SOCS2 (UniProt O14508), the log2 fold change was inactive: -0.073.
On the same count and under the same terms, then SORD (UniProt Q00796), with inactive: -0.019.
SMC1B isoform 3 (UniProt Q8NDV3): the log2 fold change is inactive: -0.059.
The same measure, in the same setting: then SNX16 (UniProt P57768), with inactive: -0.027.
For the target SNRPG (UniProt P62308), the log2 fold change was inactive: 0.099.
SMN1 (UniProt Q16637): the log2 fold change is inactive: -0.052.
In the case of SNRPD2 (UniProt P62316), the log2 fold change is inactive: 0.134.
SNF8 (UniProt Q96H20): the log2 fold change was inactive: -0.042.
With SNRPA1 (UniProt P09661), the log2 fold change was inactive: 0.097.
On to SNX8 (UniProt Q9Y5X2), for which the log2 fold change is inactive: -0.009.
As for SNU13, A0A3B3IUA2, the log2 fold change is inactive: -0.15.
As for SOD2 (UniProt P04179), the log2 fold change is inactive: 0.147.
